Results deposited as PubChem BioAssay AID1259405 (NCATS, 2018).
Here is a random part of about 50,000 reagents tested. About 4,000 of them (8%) were called active. 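Mouse siRNA library applied to hamster cells; one well for each siRNA.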 A number with no mark means an inactive call. Reagents against one gene are numbered here.

Screen: 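Mouse-designed siRNAs used to find CHO productivity engineering targets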 (primary screen)
Cell system: Chinese hamster CHO-K1 ovary cells with stable secreted eGFP expression
Reagent: single siRNA against mouse genes, 0.8 pmol siRNA per well (2 µl of 400 nM stock)
Time to read-out: 3 days
Detection: 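Per-well intracellular GFP measured by laser scanning cytometry, plus viability from ATP luminescence, each relative to plate median of non-targeting control wells, in %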
Direction: GFP, % of control: higher = more GFP per well, higher productivity; viability (ATP), % of control: higher = more viable cells (more ATP)
Rule for the call: 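a knock-down is called active if GFP reaches 120% or more of non-targeting control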

Gene,siRNA no.,"GFP, % of control","viability (ATP), % of control"
Ahsa2 (GeneID 268390),1,62.6,66
Ahsa2 (GeneID 268390),2,107,85.5
Ahsa2 (GeneID 268390),3,79.7,120
Klf1 (GeneID 16596),1,68.6,75.9
Klf1 (GeneID 16596),2,103,82.8
Klf1 (GeneID 16596),3,71.1,98
Zfp324 (GeneID 243834),1,97.3,68.4
Zfp324 (GeneID 243834),2,54.5,67.1
C1qtnf1 (GeneID 56745),1,41.4,44.3
C1qtnf1 (GeneID 56745),2,80.9,82.8
C1qtnf1 (GeneID 56745),3,58.5,73.2
Spcs2 (GeneID 66624),1,90.3,39.5
Spcs2 (GeneID 66624),2,82.4,79
Spcs2 (GeneID 66624),3,72.6,71.1
Gas7 (GeneID 14457),1,86,93.7
Gas7 (GeneID 14457),2,45.1,25.3
Gas7 (GeneID 14457),3,89.8,84.9
Pbk (GeneID 52033),1,63.2,75.1
Grpel2 (GeneID 17714),1,38.6,50.7
Grpel2 (GeneID 17714),2,77.8,93.9
Grpel2 (GeneID 17714),3,91.4,129

4 entries already listed, ordered by “viability (ATP), % of control”, ascending:
Gene,siRNA no.,"GFP, % of control","viability (ATP), % of control"
Zfp324 (GeneID 243834),2,54.5,67.1
Zfp324 (GeneID 243834),1,97.3,68.4
Klf1 (GeneID 16596),2,103,82.8
Klf1 (GeneID 16596),3,71.1,98

The list goes on:
Gene,siRNA no.,"GFP, % of control","viability (ATP), % of control"
Pbx3 (GeneID 18516),1,104,91.2
Pbx3 (GeneID 18516),2,59.5,75
Pbx3 (GeneID 18516),3,71.9,59.1
Eya4 (GeneID 14051),1,96.5,91
Eya4 (GeneID 14051),2,129 (active),80.1
Eya4 (GeneID 14051),3,66,68.8
Lrriq3 (GeneID 74435),1,105,76.3
Lrriq3 (GeneID 74435),2,67.5,107
Lrriq3 (GeneID 74435),3,108,151
Gabrp (GeneID 216643),1,69.8,102
Gabrp (GeneID 216643),2,108,144
Gabrp (GeneID 216643),3,47.1,60
Slc35e4 (GeneID 103710),1,140 (active),67.7
Slc35e4 (GeneID 103710),2,71.7,81.4
Slc35e4 (GeneID 103710),3,93.9,104
